The list shows a part of the results.
What follows are sequences tested against OsWRKY34 (Oryza sativa, UniProt Q0JBA9 1-250) (assay: protein-binding microarray (RPBM); PBS, 2% BSA, 51.3 ng/ul salmon testes DNA, 50 uM zinc acetate, 200 nM TF, 25 C, 1 h; high values mean tight binding). Details: protein: recombinant; tags: N-terminal polyhistidine and DsRed monomer fusion (pET32a); label: CyDye5-dUTP incorporated in the synthesized complementary strand; 3' TTTTT single-stranded linker to array surface; dsDNA, one strand shown.
Method in brief: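 Transcription factors were each fused at the N-terminus to a polyhistidine tag plus DsRed and expressed in E. coli BL21-CodonPlus before Ni–NTA purification. Binding to a double-stranded custom Agilent array was carried out with 200 nM protein at 25 °C for 1 h in PBS, 2% BSA, salmon testes DNA and 50 µM zinc acetate. The binding signal is per-feature fluorescence intensity, in arbitrary units, on an Axon 4000B scanner.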

The chains behind the UniProt entries cited, without tags or fusion partners.
UniProt Q0JBA9, entry or part of it: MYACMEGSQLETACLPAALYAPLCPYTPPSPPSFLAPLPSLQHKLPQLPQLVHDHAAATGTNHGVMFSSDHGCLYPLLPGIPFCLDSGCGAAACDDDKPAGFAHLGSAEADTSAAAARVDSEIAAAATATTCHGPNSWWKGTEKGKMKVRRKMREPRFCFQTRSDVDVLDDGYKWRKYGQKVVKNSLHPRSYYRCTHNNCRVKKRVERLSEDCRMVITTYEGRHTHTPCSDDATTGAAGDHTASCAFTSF

Row | Sequence | binding signal
1 | CCCTTTGTTACCACCAACTCATCAGCACCATATGTGGTAACGGAGTCACCTAGTGCAG | 8490 fluorescence intensity (a.u.)
2 | GATTTTTTTTTGGCGCGCATTCCAACCAAACGCCGCCCTCCGGAGTCACCTAGTGCAG | 10100 fluorescence intensity (a.u.)
3 | AAGAAGCGGTCCTAGTCGCCCGCCGCCGCTCGCCCACTCGCGGAGTCACCTAGTGCAG | 8600 fluorescence intensity (a.u.)
4 | GTGTATCGCCATTTCGCCCAGCTTCCCGGCCTTCCTTGTCCGGAGTCACCTAGTGCAG | 12000 fluorescence intensity (a.u.)
5 | CACTCCACTGCAACCGTGCAACGCTGACACTCACTTTTAACGGAGTCACCTAGTGCAG | 11800 fluorescence intensity (a.u.)
6 | GCACCAAACCGAACCGCCGTTTCTCGCGTCTCGCCCTCTCCGGAGTCACCTAGTGCAG | 12700 fluorescence intensity (a.u.)
7 | GATTTCCTTTTGGTTCTTATTGCATTTTTCTAAATTGGAGCGGAGTCACCTAGTGCAG | 8500 fluorescence intensity (a.u.)
8 | CGTTATTAAAATTTGGCATTGCGGTTGACTTAATAGAGGGCGGAGTCACCTAGTGCAG | 8370 fluorescence intensity (a.u.)
9 | TGTCCCCTTTTGTACTGATCCAACTCAAATGCTTTAACAACGGAGTCACCTAGTGCAG | 8940 fluorescence intensity (a.u.)
10 | AACATGAGGCATCTTCCTTCTTGCAGGTTCATCACCTATACGGAGTCACCTAGTGCAG | 8850 fluorescence intensity (a.u.)
11 | ATATTAATTTTACATGATTGATCTTATTTTTTTGCTATTACGGAGTCACCTAGTGCAG | 9140 fluorescence intensity (a.u.)
12 | CCAATTGCTTACGTACGACTACTCCTCCACGCCCCAAATCCGGAGTCACCTAGTGCAG | 9670 fluorescence intensity (a.u.)
13 | AGATGACCTGTGATGTATTTAATTTGTGTGTAATTTTTTACGGAGTCACCTAGTGCAG | 10600 fluorescence intensity (a.u.)
14 | CATCGGAAAATAATGTGTACTCTAGTCTTGTTGGGTTTGGCGGAGTCACCTAGTGCAG | 8530 fluorescence intensity (a.u.)
15 | ATTCAACACTTTTAAAATATTTTGATTGCGGTTTCTTTTACGGAGTCACCTAGTGCAG | 9530 fluorescence intensity (a.u.)
16 | TGTACTGTAGGGGTGGGATTGTGATTGGAAAATGAATGAACGGAGTCACCTAGTGCAG | 18600 fluorescence intensity (a.u.)
17 | GTTCATATTTGACTTGCGGGTTTGATCGCTTACGTTTGCGCGGAGTCACCTAGTGCAG | 8060 fluorescence intensity (a.u.)
18 | CGTTGGCTCGATTCGCCATTAATTACTATTGCGATCTTTACGGAGTCACCTAGTGCAG | 8580 fluorescence intensity (a.u.)
19 | TACTATCACACCACGCGTCTACGTATGATCCTACTGCTTACGGAGTCACCTAGTGCAG | 9190 fluorescence intensity (a.u.)
20 | CATCCCTAGTCGGCGTCTTGTCATCGCCGCCCCAATCTCGCGGAGTCACCTAGTGCAG | 8260 fluorescence intensity (a.u.)
21 | TTCTGTGCCTGCTCAAGCTCCTGTGCCTAATCCTGCCAGTCGGAGTCACCTAGTGCAG | 9200 fluorescence intensity (a.u.)

Part of the list above, field by field.
AAGAAGCGGTCCTAGTCGCCCGCCGCCGCTCGCCCACTCGCGGAGTCACCTAGTGCAG
  binding signal = 8600 fluorescence intensity (a.u.)
GTGTATCGCCATTTCGCCCAGCTTCCCGGCCTTCCTTGTCCGGAGTCACCTAGTGCAG
  binding signal = 12000 fluorescence intensity (a.u.)
CACTCCACTGCAACCGTGCAACGCTGACACTCACTTTTAACGGAGTCACCTAGTGCAG
  binding signal = 11800 fluorescence intensity (a.u.)

The list goes on.

Row | Sequence | binding signal
22 | GGTATATATATTATTTTTCCTTTTAACTTTCCATCGCCAACGGAGTCACCTAGTGCAG | 8710 fluorescence intensity (a.u.)
23 | CGTCTCCGGCCCCTCCGCCGCCGTCGACCGGTCAGATCTCCGGAGTCACCTAGTGCAG | 9030 fluorescence intensity (a.u.)
24 | CTGCATTCTCTTCATTCACTCACTCACTCATACTCATACACGGAGTCACCTAGTGCAG | 9230 fluorescence intensity (a.u.)
25 | ACACGCACACTTCAGCTCTCGTCGTCATACATCTGCTAGTCGGAGTCACCTAGTGCAG | 10200 fluorescence intensity (a.u.)
26 | TCAGAGCCCATCACTCTCTCCCTTTCTCTCTGAAAACTCTCGGAGTCACCTAGTGCAG | 8080 fluorescence intensity (a.u.)
27 | GCCACGATAGCAATGGGGCGGGCGAGAATATATAAATATTCGGAGTCACCTAGTGCAG | 8710 fluorescence intensity (a.u.)
28 | ATGAGCTCCATGATATATCCATTCTCGCCTGTGCAAATCCCGGAGTCACCTAGTGCAG | 10100 fluorescence intensity (a.u.)
29 | TTTCTTTAACCCATGGCCTCTCTCGTCGCCACCACCCGAACGGAGTCACCTAGTGCAG | 9530 fluorescence intensity (a.u.)
30 | ATCCTCCTCGACGTCCTCACACGCCTCACCTCACCTCACCCGGAGTCACCTAGTGCAG | 8900 fluorescence intensity (a.u.)
31 | CCTTGTCGATTTTCTTTGACCTAAACCCATCGTCTTCTCCCGGAGTCACCTAGTGCAG | 9260 fluorescence intensity (a.u.)
32 | CTTATCCCTTTCGCACGACCGCATCTCCCGCACACGCGCACGGAGTCACCTAGTGCAG | 10400 fluorescence intensity (a.u.)
33 | AATACTCATTGGTTGCATGCTTATATTCACTCCTTAATTTCGGAGTCACCTAGTGCAG | 11100 fluorescence intensity (a.u.)
34 | ATCTTCCCATTGCCACCCGATGTCTTCTCAGTCTTGATTTCGGAGTCACCTAGTGCAG | 9660 fluorescence intensity (a.u.)
35 | TTCTTTCTGCCCATCATGGGCTCTACTGTAATTCTTCTAACGGAGTCACCTAGTGCAG | 8550 fluorescence intensity (a.u.)
36 | CGAATACATTAGTTATGGTGACATTTTTGTGCTTCTTTTACGGAGTCACCTAGTGCAG | 8110 fluorescence intensity (a.u.)
37 | ATGCCAACACCATCATGCTAATATCAATGTTTTGTTTAATCGGAGTCACCTAGTGCAG | 8080 fluorescence intensity (a.u.)
38 | TGGCGTCTCTATCATAGAATCGTGGATATATATATGCTACCGGAGTCACCTAGTGCAG | 8060 fluorescence intensity (a.u.)
39 | AGTGTTGGCTGAAGTTGTGGTCTTGTGGACCATGTCGATTCGGAGTCACCTAGTGCAG | 8540 fluorescence intensity (a.u.)
40 | TGTTTCAGTTATTTTGTTTGTTCAACTATAATGTTTCACTCGGAGTCACCTAGTGCAG | 10100 fluorescence intensity (a.u.)
41 | AAATCAGGTCCCATAATAATATGGGTGTTTGTTTTTCGCTCGGAGTCACCTAGTGCAG | 8390 fluorescence intensity (a.u.)
42 | AGGGAGTTTTTAGAAGGGATTGGGAGTTTAGAGGGATGATCGGAGTCACCTAGTGCAG | 8640 fluorescence intensity (a.u.)
